# Record: PubChem BioAssay AID652272 (Drosophila RNAi Screening Center, 2013)
# Assay: 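Genes whose knock-down decreases or increases Hedgehog reporter output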 (primary screen)
# Cells: Drosophila clone 8 (Cl8) cells
# Reagent: long dsRNA against Drosophila genes
# Measurement: 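Plate reader light from a firefly reporter under a ptc promoter fragment that responds to Hedgehog, with Renilla light as transfection reference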
# Reading the numbers: firefly Hh reporter signal: higher = more ptc reporter light; Renilla reference signal: higher = more Renilla control light
# Rule for the call: 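Called a hit if the two-replicate mean z-score lies below -2 or above +3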
# Calls: active = hit: reporter lowered or raised; inactive = not a hit
# The deposit covers about 21,000 reagents; below is an unselected part of those that have a named target and a result. Of all reagents, 503 (2.4%) got an active call. 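Raw plate light values, not normalised; calls rest on replicate z-scores that were not deposited; hits include reporter decreases as well as increases.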 A number with no mark means an inactive call. The numbers tell different reagents against one gene apart. Names joined by + are all predicted targets of the reagent. Not stated in the record: the amount of reagent, the time to read-out.
gene,reagent,"firefly Hh reporter signal, replicate 1","firefly Hh reporter signal, replicate 2","firefly Hh reporter signal, replicate 3","Renilla reference signal, replicate 1","Renilla reference signal, replicate 2"
barc (barricade),1,1.15e5,66217,,4656,2741
CG14537,1,1.24e5,57063,,3408,5824
Nelf-E (Negative elongation factor E),1,47024,49341,,7228,3997
Oga (O-GlcNAcase),1,75740,81405,,3536,3050
RabX6,1,63177,41990,,1921,3180
CG14411,1,71481,1.78e5,,1976,6603
Egm (Enigma),1,1.73e5,1.08e5,,6433,4180
Muc12Ea (Mucin 12Ea),1,1.29e5,7.62e5,3.40e5,3965,1914
l(1)G0196 (lethal (1) G0196),1,4.83e5,1.95e5,,29606,4345
l(1)G0196 (lethal (1) G0196),2,90173,1.81e5,,2960,9414
CG14797,1,52610,1.69e5,,1254,7268
CG17780 + CG17781,1,5.55e5,83008,,26464,2853
Dredd (Death related ced-3/Nedd2-like caspase),1,1.14e5,82598,,2449,2537
hep (hemipterous),1,78469,1.95e5,,2147,8118
hep (hemipterous),2,64488,1.47e5,,2058,6563
Sse (Separase),1,61085,52283,,2802,2247
RasGAP1 (Ras GTPase activating protein 1),1,19938,63043,57411,7040,4011
CG3687,1,82164,47635,,2229,3306
CG34299,1,60296,2.89e5,,13900,6412
Pcif1 (Phosphorylated CTD-interacting factor 1),1,74169,46218,,3680,2064
Tom20 (Translocase of outer membrane 20),1,1.48e5,88512,,6272,4304
pit (pitchoune),1,7.75e5,1.64e5,,42706,12250
Frmd5 (FERM domain containing),1,1.05e5,45493,,3242,4913
CG14314,1,6.52e5,78055,,31908,1874
Rbp (RIM-binding protein),1,34481,28517,,1287,978
Rbp (RIM-binding protein),2,97552,1.07e5,,3520,2900
CG15528,1,1.44e5,99153,,6176,2650
Cdc45 (Cell division cycle 45),1,90592,1.10e5,,1813,4172
Cdc45 (Cell division cycle 45),2,1.32e5,66576,,8775,2851
CG7294,1,1.54e5,54002,,3714,7440
Tom7 (Translocase of outer membrane 7),1,1.48e5,1.82e5,,3323,7942
Tom7 (Translocase of outer membrane 7),2,84561,68513,,2356,5769
CG7781,1,1.04e5,77290,,2904,6073
CG15435,1,83393,39988,,2452,4509
Ptp52F (Protein tyrosine phosphatase 52F),1,58405,32683,,1456,2184
CG7768,1,71801,42896,,2881,1528
CG9269,1,89255,69712,,3445,2404
CG33259,1,1.32e5,,,4123,3622
Sod1 (Superoxide dismutase 1),1,49264,61488,65068,5602,4842
naz (nazgul),1,5.97e5,1.03e5,,40055,2603
naz (nazgul),2,4.27e5,78155,,27859,2182
CG1354,1,58969,1.67e5,,2173,6051
Acp53Ea (Accessory gland protein 53Ea),1,91853,51880,,2428,2844
dao (down and out),1,1.14e5,67437,,3332,6375
CG1701,1,63227,49021,,1704,3945
Gga,1,71018,63507,,2001,1298
GCC185 (GRIP and coiled-coil domain containing 185 kDa),1,86758,1.02e5,,3770,2637
Osi8 (Osiris 8),1,88251,1.12e5,,3184,3659
Vps24 (Vacuolar protein sorting 24),1,1.57e5,5.52e5,90616,6016,33424
CG2611,1,1.20e5,72005,,4184,2809
CG42748,1,56608,45379,,1446,4471
CG42748,2,1.16e5,76065,,4816,3494
CG42748,3,56795,57792,,1804,4128
CG16959,1,96218,45099,,3645,1931
Fs(2)Ket (Female sterile (2) Ketel),1,52775,26944,,2600,1478
CG8204,1,1.25e5,45188,,3216,2203
Pdss2 (Decaprenyl diphosphate synthase subunit 2),1,82498,62567,,3004,2457
Cnot4 (CCR4-NOT transcription complex subunit 4),1,1.46e5,94091,,3456,8498
Cnot4 (CCR4-NOT transcription complex subunit 4),2,1.38e5,56992,,3186,4681
Had2 (beta Hydroxy acid dehydrogenase 2),1,1.26e5,75852,,5552,3093
scyl (scylla),1,59136,63449,58825,5472,4368
Sas-6 (Spindle assembly abnormal 6),1,1.04e5,1.13e5,,3895,3316
CG3165,1,82772,60304,,3474,2880
Pp1alpha-96A (Protein phosphatase 1alpha at 96A),1,6.37e5,1.22e5,,32551,3237
CG9890,1,71602,48517,,1417,4569
CG15167,1,88199,67332,,2042,6359
CG8329,1,1.56e5,98604,,6002,4225
AttC (Attacin-C),1,68752,61210,,1494,3917
Fpgs2 (Folylpolyglutamate synthase 2),1,1.44e5,48100,,3411,4641
CG1441,1,1.16e5,73588,,4550,2653
Act5C (Actin 5C),1,39254,1.24e5,,1376,5016
mEFTs (mitochondrial translation elongation factor Ts),1,46068,1.04e5,,2176,3524
Ir92a (Ionotropic receptor 92a),1,5.35e5,87515,,27296,2273
